Compound in this experiment: Nc1nc2c(ncn2[C@@H]2O[C@H](COP(=O)(O)OP(=O)(O)OP(=O)(O)O)[C@@H](O)[C@H]2O)c(=O)[nH]1 [guanosine triphosphate]
Put plainly: NP40-soluble protein abundance relative to vehicle (solubility fold change) (ratio); higher = more soluble protein in presence of GTP. A digest of the protocol:
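Data come from three independent experiments in which Dounce-homogenised Jurkat crude lysate was treated at eight concentrations from 0.1 to 10 mM. Treatment ran 10 min at room temperature and then 3 min at 37 °C, after which 0.8% NP40 and benzonase were added for 60 min at 4 °C before ultracentrifugation. The supernatant underwent TMT labelling and LC-MS/MS, and vsn-normalised intensities were expressed as fold change against the detergent-processed vehicle in each replicate.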

The chains behind the UniProt entries cited, without tags or fusion partners. Where a name states a change or a piece, a line headed by the entry shows the natural chain unless it says otherwise.
UniProt O43324: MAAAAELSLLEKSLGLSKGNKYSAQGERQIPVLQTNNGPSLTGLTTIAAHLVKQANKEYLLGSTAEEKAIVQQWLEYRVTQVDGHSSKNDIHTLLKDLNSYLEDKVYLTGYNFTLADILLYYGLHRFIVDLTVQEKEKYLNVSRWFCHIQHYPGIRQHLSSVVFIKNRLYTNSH
UniProt O60488: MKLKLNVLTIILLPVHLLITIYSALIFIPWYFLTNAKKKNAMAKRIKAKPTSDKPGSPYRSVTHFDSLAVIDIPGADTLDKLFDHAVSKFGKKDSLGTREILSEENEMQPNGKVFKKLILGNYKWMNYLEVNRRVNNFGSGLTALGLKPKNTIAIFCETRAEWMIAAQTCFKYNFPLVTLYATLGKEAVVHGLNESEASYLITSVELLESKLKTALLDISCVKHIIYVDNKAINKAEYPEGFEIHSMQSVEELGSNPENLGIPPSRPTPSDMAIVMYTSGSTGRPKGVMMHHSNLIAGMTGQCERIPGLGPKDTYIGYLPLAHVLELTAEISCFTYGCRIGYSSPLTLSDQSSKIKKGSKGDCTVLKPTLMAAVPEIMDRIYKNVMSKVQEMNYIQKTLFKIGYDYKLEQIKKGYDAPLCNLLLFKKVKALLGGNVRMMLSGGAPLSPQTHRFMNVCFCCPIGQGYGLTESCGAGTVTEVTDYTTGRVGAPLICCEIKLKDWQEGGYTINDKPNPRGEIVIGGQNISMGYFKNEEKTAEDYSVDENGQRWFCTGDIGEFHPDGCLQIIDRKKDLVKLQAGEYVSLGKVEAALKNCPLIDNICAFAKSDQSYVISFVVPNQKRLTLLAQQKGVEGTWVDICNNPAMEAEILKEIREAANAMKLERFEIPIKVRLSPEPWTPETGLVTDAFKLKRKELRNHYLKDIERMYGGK
UniProt O00716: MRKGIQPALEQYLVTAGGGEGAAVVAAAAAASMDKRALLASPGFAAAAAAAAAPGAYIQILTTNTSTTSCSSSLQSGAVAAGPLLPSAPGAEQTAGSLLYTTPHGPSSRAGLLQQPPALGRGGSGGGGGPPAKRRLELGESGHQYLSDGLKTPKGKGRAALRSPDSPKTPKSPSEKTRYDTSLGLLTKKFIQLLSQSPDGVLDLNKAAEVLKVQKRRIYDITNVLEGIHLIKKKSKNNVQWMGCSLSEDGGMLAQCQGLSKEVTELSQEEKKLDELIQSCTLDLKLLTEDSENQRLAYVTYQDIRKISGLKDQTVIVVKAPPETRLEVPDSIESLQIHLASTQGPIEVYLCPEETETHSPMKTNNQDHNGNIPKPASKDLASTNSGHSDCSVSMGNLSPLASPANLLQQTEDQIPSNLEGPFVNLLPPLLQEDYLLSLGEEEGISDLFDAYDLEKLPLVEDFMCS
UniProt O43290: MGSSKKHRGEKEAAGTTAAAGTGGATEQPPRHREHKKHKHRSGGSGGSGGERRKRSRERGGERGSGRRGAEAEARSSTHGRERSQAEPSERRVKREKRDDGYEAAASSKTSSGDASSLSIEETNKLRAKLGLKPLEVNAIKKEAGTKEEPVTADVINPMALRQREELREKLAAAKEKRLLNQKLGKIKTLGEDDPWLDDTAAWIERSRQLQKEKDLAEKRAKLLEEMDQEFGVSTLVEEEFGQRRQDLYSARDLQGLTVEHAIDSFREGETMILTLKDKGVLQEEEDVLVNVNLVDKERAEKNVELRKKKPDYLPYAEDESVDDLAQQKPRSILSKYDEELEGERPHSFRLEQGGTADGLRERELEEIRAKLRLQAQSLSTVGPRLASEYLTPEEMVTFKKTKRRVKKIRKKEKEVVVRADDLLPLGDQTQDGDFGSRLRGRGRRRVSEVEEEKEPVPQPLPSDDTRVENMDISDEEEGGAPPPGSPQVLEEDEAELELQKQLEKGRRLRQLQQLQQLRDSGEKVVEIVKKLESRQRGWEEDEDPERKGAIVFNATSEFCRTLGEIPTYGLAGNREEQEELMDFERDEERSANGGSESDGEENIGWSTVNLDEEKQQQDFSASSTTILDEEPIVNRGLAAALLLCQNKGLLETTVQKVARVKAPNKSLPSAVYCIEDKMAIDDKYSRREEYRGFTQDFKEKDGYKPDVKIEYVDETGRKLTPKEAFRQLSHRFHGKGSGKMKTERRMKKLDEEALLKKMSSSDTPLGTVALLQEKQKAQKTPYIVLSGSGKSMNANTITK
UniProt O00767: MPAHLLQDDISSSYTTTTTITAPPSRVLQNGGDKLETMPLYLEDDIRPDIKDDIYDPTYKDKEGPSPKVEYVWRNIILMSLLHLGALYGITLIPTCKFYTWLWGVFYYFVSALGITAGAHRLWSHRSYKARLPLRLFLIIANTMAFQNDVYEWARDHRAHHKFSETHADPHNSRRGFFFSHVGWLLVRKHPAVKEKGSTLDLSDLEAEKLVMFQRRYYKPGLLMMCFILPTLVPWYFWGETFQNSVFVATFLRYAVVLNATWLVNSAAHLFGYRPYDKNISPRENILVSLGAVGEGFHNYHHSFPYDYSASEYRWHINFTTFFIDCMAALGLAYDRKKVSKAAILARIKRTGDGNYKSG
UniProt O15270: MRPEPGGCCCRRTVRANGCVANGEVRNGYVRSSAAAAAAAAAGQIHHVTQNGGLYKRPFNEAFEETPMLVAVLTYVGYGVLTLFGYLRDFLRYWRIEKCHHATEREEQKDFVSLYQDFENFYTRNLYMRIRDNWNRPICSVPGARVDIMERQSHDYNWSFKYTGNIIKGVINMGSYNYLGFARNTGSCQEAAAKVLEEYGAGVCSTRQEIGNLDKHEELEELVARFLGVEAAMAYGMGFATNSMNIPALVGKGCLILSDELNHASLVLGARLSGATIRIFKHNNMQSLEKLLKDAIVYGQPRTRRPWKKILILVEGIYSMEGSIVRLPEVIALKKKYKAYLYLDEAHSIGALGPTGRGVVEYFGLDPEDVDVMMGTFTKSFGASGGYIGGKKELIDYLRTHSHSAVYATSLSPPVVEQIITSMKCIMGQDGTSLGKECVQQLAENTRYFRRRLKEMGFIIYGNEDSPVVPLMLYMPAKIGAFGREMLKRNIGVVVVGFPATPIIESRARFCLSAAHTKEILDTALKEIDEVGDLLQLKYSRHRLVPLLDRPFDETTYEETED
UniProt O15084: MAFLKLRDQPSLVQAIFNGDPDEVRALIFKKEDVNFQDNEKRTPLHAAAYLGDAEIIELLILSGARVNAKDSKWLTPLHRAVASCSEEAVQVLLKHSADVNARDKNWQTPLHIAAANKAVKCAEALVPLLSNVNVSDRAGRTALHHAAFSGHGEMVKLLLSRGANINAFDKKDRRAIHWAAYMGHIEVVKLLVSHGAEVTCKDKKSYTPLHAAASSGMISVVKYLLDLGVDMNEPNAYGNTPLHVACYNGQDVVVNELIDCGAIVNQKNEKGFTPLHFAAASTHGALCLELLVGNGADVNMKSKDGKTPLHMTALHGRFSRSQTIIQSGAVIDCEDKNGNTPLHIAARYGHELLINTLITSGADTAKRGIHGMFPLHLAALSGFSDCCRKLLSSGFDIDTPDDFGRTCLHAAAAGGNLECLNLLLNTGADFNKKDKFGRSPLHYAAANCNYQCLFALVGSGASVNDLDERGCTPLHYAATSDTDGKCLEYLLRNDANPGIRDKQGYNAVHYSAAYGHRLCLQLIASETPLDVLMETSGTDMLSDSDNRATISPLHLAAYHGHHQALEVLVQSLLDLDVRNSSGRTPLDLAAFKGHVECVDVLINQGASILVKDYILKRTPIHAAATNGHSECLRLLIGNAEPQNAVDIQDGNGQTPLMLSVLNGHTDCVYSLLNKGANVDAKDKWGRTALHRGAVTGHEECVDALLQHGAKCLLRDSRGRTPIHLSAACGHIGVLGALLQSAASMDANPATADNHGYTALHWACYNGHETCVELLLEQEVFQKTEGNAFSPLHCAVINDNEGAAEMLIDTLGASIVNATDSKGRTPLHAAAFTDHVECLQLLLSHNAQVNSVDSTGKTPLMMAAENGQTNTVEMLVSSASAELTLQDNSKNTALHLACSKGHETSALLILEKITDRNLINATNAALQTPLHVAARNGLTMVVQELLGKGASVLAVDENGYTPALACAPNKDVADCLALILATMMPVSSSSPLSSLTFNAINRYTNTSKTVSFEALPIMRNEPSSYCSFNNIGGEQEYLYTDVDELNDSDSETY
UniProt Q9UI14, whole entry: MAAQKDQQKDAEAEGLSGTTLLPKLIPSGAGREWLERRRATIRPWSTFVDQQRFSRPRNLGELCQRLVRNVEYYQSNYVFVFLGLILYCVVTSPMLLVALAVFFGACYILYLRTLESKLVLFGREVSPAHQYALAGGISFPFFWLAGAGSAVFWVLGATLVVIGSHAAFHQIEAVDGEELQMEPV
UniProt O00471: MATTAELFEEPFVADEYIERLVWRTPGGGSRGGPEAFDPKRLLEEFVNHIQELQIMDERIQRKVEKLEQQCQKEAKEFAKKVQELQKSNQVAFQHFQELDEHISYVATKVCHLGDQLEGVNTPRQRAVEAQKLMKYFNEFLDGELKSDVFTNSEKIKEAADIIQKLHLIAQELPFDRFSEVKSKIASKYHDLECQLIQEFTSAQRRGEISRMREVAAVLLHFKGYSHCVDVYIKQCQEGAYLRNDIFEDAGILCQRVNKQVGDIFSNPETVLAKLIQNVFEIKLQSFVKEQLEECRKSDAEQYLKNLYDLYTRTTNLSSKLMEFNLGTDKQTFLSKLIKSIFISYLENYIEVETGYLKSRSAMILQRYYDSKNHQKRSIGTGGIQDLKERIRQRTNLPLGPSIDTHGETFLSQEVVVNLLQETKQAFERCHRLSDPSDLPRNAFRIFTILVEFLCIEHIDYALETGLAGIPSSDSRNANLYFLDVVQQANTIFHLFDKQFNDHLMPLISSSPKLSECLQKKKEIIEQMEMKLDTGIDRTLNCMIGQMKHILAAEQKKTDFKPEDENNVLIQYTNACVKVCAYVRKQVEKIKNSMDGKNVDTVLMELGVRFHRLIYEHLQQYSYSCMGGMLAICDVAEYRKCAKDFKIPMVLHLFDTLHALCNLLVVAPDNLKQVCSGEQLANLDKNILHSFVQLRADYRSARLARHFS
UniProt O43896: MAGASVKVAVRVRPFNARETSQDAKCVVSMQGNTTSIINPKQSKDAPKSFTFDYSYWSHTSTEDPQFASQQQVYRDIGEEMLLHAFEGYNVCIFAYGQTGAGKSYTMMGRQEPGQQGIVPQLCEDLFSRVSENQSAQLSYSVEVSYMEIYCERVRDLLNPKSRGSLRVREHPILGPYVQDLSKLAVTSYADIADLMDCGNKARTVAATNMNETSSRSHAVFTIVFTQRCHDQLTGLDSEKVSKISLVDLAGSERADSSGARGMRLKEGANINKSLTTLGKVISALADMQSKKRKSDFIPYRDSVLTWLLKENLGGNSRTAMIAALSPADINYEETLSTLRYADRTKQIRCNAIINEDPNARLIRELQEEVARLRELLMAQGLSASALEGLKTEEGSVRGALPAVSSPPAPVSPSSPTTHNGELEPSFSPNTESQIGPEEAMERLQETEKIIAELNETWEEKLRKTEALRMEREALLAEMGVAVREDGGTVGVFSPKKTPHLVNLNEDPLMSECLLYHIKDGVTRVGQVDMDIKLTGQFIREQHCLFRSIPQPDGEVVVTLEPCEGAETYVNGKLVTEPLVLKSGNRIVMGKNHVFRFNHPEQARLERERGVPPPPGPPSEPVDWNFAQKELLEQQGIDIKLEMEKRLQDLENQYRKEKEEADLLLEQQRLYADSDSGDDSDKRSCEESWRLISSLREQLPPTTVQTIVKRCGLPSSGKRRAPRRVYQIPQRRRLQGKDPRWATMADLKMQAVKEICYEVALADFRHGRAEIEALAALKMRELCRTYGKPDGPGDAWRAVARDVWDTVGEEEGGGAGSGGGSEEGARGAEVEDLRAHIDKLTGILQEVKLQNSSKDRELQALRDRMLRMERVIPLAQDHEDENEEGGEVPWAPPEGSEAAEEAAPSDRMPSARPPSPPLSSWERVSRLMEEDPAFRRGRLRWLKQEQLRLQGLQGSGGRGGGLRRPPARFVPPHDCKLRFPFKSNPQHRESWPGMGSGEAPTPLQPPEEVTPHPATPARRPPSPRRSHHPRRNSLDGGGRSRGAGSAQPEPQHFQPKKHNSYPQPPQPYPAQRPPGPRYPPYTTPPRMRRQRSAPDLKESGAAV
UniProt O15260: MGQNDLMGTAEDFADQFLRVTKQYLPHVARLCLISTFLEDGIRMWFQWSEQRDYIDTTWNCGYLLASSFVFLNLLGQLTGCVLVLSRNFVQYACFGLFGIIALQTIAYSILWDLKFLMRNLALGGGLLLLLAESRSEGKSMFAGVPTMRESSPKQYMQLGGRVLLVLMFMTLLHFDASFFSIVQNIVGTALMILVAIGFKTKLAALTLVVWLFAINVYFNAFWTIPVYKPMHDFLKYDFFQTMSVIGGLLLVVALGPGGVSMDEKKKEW

± gives the standard deviation of the averaged measurements. This is one part of the list.

On to UniProt O43422, for which the NP40-soluble protein abundance was 0.913 ± 0.15 (concentration: 0.1mM); 0.925 ± 0.18 (concentration: 0.5mM); 0.825 ± 0.1 (concentration: 1mM); 0.842 ± 0.11 (concentration: 2mM); 0.842 ± 0.1 (concentration: 4mM); 0.877 ± 0.1 (concentration: 6mM). The NP40-soluble protein abundance was 0.843 ± 0.12 (concentration: 8mM) and 0.799 ± 0.1 (concentration: 10mM).

Regarding ZZEF1 (UniProt O43149), the NP40-soluble protein abundance stood at 1.07 ± 0.088 (concentration: 0.1mM); 1.09 ± 0.13 (concentration: 0.5mM); 1.12 ± 0.13 (concentration: 1mM); 1.13 ± 0.086 (concentration: 2mM); 1.13 ± 0.14 (concentration: 4mM); 1.14 ± 0.15 (concentration: 6mM). Also, the NP40-soluble protein abundance by setting is: (concentration: 8mM) 1.15 ± 0.15; (concentration: 10mM) 1.11 ± 0.15.

Take UniProt O43251-6|O43251-8: the NP40-soluble protein abundance was 0.922 ± 0.12 (concentration: 0.1mM); 0.965 ± 0.11 (concentration: 0.5mM); 0.925 ± 0.079 (concentration: 1mM); 0.971 ± 0.1 (concentration: 2mM); 0.928 ± 0.077 (concentration: 4mM); 0.961 ± 0.047 (concentration: 6mM). The NP40-soluble protein abundance (concentration: 8mM) came to 0.952 ± 0.04 and the NP40-soluble protein abundance (concentration: 10mM) is 0.958 ± 0.088.

For UniProt O60313 and related entries, the NP40-soluble protein abundance by setting is: (concentration: 0.1mM) 1.02 ± 0.023; (concentration: 0.5mM) 1.02 ± 0.017; (concentration: 1mM) 0.963 ± 0.03; (concentration: 2mM) 0.964 ± 0.016; (concentration: 4mM) 0.947 ± 0.022; (concentration: 6mM) 0.936 ± 0.021. In addition, the NP40-soluble protein abundance was found to be 0.92 ± 0.048 (concentration: 8mM) and 0.895 ± 0.054 (concentration: 10mM).

As to EEF1E1 (UniProt O43324), the NP40-soluble protein abundance reads like this: (concentration: 0.1mM) 1.05 ± 0.28; (concentration: 0.5mM) 0.987 ± 0.27; (concentration: 1mM) 1.24 ± 0.41; (concentration: 2mM) 1.43 ± 0.46; (concentration: 4mM) 1.41 ± 0.44; (concentration: 6mM) 1.39 ± 0.45. Besides, the NP40-soluble protein abundance by setting is: (concentration: 8mM) 1.22 ± 0.39; (concentration: 10mM) 1.31 ± 0.55.

Turning to UniProt O60488 and related entries, the NP40-soluble protein abundance is, setting by setting: (concentration: 0.1mM) 1.02 ± 0.028; (concentration: 0.5mM) 1.08 ± 0.053; (concentration: 1mM) 0.9363 ± 0.0046; (concentration: 2mM) 0.939 ± 0.066; (concentration: 4mM) 0.908 ± 0.045; (concentration: 6mM) 0.905 ± 0.049. Further, the NP40-soluble protein abundance (concentration: 8mM) was determined as 0.894 ± 0.039 and the NP40-soluble protein abundance (concentration: 10mM) turned out to be 0.843 ± 0.086.

POLRMT (UniProt O00411): the NP40-soluble protein abundance (concentration: 0.1mM) was found to be 1.02 ± 0.11; the NP40-soluble protein abundance (concentration: 0.5mM) amounted to 1.04 ± 0.039; the NP40-soluble protein abundance (concentration: 1mM) was 0.998 ± 0.063; the NP40-soluble protein abundance (concentration: 2mM) worked out at 1.06 ± 0.11; the NP40-soluble protein abundance (concentration: 4mM) turned out to be 1.01 ± 0.074; the NP40-soluble protein abundance (concentration: 6mM) was 0.946 ± 0.1. For the same target, the NP40-soluble protein abundance is, setting by setting: (concentration: 8mM) 0.95 ± 0.036; (concentration: 10mM) 0.966 ± 0.069.

Consider UniProt O00716 and related entries, for which the NP40-soluble protein abundance was 1.02 ± 0.016 (concentration: 0.1mM); 0.988 ± 0.021 (concentration: 0.5mM); 1.01 ± 0.0076 (concentration: 1mM); 1.04 ± 0.011 (concentration: 2mM); 1.03 ± 0.039 (concentration: 4mM); 1 ± 0.036 (concentration: 6mM). Further, the NP40-soluble protein abundance (concentration: 8mM) is 0.99 ± 0.034 and the NP40-soluble protein abundance (concentration: 10mM) was 1.04 ± 0.047.

SART1 (UniProt O43290): the NP40-soluble protein abundance reads like this: (concentration: 0.1mM) 0.976 ± 0.045; (concentration: 0.5mM) 1.05 ± 0.053; (concentration: 1mM) 1.13 ± 0.07; (concentration: 2mM) 1.17 ± 0.11; (concentration: 4mM) 1.28 ± 0.16; (concentration: 6mM) 1.37 ± 0.17. Moreover, the NP40-soluble protein abundance is, setting by setting: (concentration: 8mM) 1.46 ± 0.27; (concentration: 10mM) 1.54 ± 0.32.

As for SCD (UniProt O00767), the NP40-soluble protein abundance turned out to be 0.982 ± 0.032 (concentration: 0.1mM); 1.02 ± 0.018 (concentration: 0.5mM); 0.929 ± 0.036 (concentration: 1mM); 0.916 ± 0.068 (concentration: 2mM); 0.867 ± 0.018 (concentration: 4mM); 0.865 ± 0.028 (concentration: 6mM). The NP40-soluble protein abundance is 0.856 ± 0.018 (concentration: 8mM) and 0.82 ± 0.053 (concentration: 10mM).

Turning to SPTLC2 (UniProt O15270), the NP40-soluble protein abundance reads like this: (concentration: 0.1mM) 1.06 ± 0.09; (concentration: 0.5mM) 1.07 ± 0.079; (concentration: 1mM) 0.967 ± 0.06; (concentration: 2mM) 1.02 ± 0.14; (concentration: 4mM) 0.999 ± 0.13; (concentration: 6mM) 0.989 ± 0.097. In addition, the NP40-soluble protein abundance amounted to 0.929 ± 0.042 (concentration: 8mM) and 0.907 ± 0.05 (concentration: 10mM).

With ANKRD28 (UniProt O15084), the NP40-soluble protein abundance amounted to 1.06 ± 0.073 (concentration: 0.1mM); 1.08 ± 0.09 (concentration: 0.5mM); 1.09 ± 0.099 (concentration: 1mM); 1.13 ± 0.13 (concentration: 2mM); 1.14 ± 0.16 (concentration: 4mM); 1.12 ± 0.16 (concentration: 6mM). Also, the NP40-soluble protein abundance reads like this: (concentration: 8mM) 1.08 ± 0.16; (concentration: 10mM) 1.05 ± 0.13.

UniProt O14841 and related entries: the NP40-soluble protein abundance reads like this: (concentration: 0.1mM) 1.04 ± 0.019; (concentration: 0.5mM) 1.02 ± 0.066; (concentration: 1mM) 1.06 ± 0.11; (concentration: 2mM) 0.927 ± 0.048; (concentration: 4mM) 1.04 ± 0.11; (concentration: 6mM) 0.912 ± 0.13. The NP40-soluble protein abundance is, setting by setting: (concentration: 8mM) 1.03 ± 0.0033; (concentration: 10mM) 0.936 ± 0.086.

For the target “M0R3D4 and related entries (UniProt Q9UI14)”, the NP40-soluble protein abundance is, setting by setting: (concentration: 0.1mM) 1.05 ± 0.14; (concentration: 0.5mM) 0.97 ± 0.0098; (concentration: 1mM) 0.949 ± 0.049; (concentration: 2mM) 0.858 ± 0.08; (concentration: 4mM) 0.88225 ± 0.0001; (concentration: 6mM) 0.847 ± 0.0022. In addition, the NP40-soluble protein abundance runs as follows: (concentration: 8mM) 0.871 ± 0.027; (concentration: 10mM) 0.846 ± 0.013.

Consider UniProt O00471 and related entries, for which the NP40-soluble protein abundance by setting is: (concentration: 0.1mM) 1.03 ± 0.033; (concentration: 0.5mM) 1.01 ± 0.057; (concentration: 1mM) 1.02 ± 0.039; (concentration: 2mM) 1.02 ± 0.059; (concentration: 4mM) 1.05 ± 0.062; (concentration: 6mM) 0.996 ± 0.044. Further, the NP40-soluble protein abundance reads like this: (concentration: 8mM) 1.03 ± 0.062; (concentration: 10mM) 1.01 ± 0.05.

On to KIF1C (UniProt O43896), for which the NP40-soluble protein abundance reads like this: (concentration: 0.1mM) 1.02 ± 0.13; (concentration: 0.5mM) 1.03 ± 0.061; (concentration: 1mM) 0.998 ± 0.04; (concentration: 2mM) 0.973 ± 0.033; (concentration: 4mM) 0.928 ± 0.12; (concentration: 6mM) 0.994 ± 0.017. Also, the NP40-soluble protein abundance by setting is: (concentration: 8mM) 0.959 ± 0.018; (concentration: 10mM) 0.8934 ± 0.0057.

For the target UniProt O15260 and related entries, the NP40-soluble protein abundance came to 1.13 ± 0.021 (concentration: 0.1mM); 1.03 ± 0.05 (concentration: 0.5mM); 1.05 ± 0.022 (concentration: 1mM); 1.01 ± 0.07 (concentration: 2mM); 1.04 ± 0.074 (concentration: 4mM); 0.956 ± 0.055 (concentration: 6mM). Further, the NP40-soluble protein abundance reads like this: (concentration: 8mM) 1.03 ± 0.044; (concentration: 10mM) 0.953 ± 0.03.

For the target OGT (UniProt O15294), the NP40-soluble protein abundance is 0.975 ± 0.022 (concentration: 0.1mM); 1 ± 0.013 (concentration: 0.5mM); 0.97 ± 0.011 (concentration: 1mM); 0.958 ± 0.027 (concentration: 2mM); 0.958 ± 0.012 (concentration: 4mM); 0.96 ± 0.015 (concentration: 6mM). The NP40-soluble protein abundance (concentration: 8mM) was 0.937 ± 0.029 and the NP40-soluble protein abundance (concentration: 10mM) came to 0.927 ± 0.014.

Source of the values: the supplement of paper PMC6411743.
